These are yes or no findings as the source states them, for the method shown. In cells and extracts the contact can be indirect. These calls come from enrichment with a bait or labelling near it, and not all partners need be listed. Tags and fused reporters may be left off the sequences shown.
Target: T1, Flag-PLK4 wt (polo-like kinase 4), full-length (human) (UniProt O00444)
T1 sequence: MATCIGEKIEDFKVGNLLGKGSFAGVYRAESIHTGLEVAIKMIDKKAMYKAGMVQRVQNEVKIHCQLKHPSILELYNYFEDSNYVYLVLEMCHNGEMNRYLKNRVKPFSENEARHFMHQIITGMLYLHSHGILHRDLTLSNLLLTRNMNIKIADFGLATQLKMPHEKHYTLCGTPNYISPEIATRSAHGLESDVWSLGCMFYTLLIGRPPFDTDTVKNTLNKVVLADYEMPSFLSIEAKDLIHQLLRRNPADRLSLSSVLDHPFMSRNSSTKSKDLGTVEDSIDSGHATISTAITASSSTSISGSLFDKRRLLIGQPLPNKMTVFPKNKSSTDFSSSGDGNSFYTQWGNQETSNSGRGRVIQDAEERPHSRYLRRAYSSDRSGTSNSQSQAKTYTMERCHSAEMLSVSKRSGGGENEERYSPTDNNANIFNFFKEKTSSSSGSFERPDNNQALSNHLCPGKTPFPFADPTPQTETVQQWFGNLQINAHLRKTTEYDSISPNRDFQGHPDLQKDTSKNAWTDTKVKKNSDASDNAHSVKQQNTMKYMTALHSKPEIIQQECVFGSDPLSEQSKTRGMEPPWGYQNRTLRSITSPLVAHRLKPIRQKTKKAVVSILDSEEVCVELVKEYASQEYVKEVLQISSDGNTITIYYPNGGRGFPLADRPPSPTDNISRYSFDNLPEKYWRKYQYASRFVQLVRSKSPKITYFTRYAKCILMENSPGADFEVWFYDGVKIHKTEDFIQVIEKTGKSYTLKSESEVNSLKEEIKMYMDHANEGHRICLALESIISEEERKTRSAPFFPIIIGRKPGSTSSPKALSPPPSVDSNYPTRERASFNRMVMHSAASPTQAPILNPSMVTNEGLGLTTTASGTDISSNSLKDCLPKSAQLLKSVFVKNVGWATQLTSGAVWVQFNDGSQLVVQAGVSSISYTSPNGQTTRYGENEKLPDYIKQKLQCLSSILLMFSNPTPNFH
Assay: affinity purification with mass spectrometry; Flag-PLK4 IP, elution fractions resolved by SDS-PAGE, gel slices digested with trypsin, nanoLC-ESI-MS/MS, MASCOT search against SwissProt human

Amino acid sequences for entries named in this document (tags omitted).
UniProt Q96JK2: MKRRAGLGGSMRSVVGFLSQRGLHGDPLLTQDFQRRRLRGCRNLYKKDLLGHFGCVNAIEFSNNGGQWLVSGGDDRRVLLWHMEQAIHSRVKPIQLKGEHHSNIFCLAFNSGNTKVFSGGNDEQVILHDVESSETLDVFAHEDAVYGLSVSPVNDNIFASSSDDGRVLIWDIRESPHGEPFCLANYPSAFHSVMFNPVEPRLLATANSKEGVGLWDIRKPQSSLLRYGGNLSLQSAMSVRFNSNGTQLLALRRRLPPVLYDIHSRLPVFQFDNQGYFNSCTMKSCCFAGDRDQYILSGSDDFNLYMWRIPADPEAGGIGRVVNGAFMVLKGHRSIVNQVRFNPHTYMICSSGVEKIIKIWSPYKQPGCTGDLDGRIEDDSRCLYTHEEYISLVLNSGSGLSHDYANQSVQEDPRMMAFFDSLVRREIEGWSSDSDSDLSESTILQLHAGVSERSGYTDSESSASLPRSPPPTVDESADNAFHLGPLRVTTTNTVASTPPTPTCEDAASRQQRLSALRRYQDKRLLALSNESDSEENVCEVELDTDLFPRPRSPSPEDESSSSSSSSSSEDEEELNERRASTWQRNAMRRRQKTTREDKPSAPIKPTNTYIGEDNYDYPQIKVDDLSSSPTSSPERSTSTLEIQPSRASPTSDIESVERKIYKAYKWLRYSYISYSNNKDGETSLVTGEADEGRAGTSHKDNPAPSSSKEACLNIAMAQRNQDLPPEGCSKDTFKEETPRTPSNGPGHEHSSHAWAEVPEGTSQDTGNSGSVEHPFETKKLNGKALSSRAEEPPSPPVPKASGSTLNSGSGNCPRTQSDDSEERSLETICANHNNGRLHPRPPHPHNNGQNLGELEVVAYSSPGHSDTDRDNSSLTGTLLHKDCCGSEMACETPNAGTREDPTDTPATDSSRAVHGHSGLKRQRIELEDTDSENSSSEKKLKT
UniProt Q16531: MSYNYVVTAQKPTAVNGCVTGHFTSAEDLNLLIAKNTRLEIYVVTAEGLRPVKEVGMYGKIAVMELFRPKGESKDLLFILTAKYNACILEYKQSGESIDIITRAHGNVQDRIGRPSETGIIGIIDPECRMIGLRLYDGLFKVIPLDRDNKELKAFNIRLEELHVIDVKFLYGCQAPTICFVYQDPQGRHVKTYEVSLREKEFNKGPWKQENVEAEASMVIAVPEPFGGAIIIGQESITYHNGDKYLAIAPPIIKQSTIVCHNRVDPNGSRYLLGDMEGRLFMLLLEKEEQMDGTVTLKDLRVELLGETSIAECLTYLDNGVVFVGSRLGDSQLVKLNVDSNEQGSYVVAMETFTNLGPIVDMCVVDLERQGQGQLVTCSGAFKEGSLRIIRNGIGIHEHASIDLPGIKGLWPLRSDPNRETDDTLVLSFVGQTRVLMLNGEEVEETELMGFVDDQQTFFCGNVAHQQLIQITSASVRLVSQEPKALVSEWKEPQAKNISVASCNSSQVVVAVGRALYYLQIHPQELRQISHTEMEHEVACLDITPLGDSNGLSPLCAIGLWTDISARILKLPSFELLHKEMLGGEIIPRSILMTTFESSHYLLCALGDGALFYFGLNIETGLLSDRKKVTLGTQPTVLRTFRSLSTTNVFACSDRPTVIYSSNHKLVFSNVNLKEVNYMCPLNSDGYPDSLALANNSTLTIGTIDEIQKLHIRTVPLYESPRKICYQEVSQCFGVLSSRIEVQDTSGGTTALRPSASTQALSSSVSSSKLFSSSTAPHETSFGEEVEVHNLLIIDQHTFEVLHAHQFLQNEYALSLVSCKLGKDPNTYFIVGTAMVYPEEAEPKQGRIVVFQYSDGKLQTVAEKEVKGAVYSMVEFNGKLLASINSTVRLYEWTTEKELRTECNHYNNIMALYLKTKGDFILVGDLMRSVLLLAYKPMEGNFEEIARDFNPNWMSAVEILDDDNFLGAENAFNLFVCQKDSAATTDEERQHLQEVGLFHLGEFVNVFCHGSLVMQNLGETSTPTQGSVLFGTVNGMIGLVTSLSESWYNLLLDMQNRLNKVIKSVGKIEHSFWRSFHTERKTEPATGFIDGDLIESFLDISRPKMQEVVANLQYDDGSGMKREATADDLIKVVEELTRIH
UniProt Q9Y4B6: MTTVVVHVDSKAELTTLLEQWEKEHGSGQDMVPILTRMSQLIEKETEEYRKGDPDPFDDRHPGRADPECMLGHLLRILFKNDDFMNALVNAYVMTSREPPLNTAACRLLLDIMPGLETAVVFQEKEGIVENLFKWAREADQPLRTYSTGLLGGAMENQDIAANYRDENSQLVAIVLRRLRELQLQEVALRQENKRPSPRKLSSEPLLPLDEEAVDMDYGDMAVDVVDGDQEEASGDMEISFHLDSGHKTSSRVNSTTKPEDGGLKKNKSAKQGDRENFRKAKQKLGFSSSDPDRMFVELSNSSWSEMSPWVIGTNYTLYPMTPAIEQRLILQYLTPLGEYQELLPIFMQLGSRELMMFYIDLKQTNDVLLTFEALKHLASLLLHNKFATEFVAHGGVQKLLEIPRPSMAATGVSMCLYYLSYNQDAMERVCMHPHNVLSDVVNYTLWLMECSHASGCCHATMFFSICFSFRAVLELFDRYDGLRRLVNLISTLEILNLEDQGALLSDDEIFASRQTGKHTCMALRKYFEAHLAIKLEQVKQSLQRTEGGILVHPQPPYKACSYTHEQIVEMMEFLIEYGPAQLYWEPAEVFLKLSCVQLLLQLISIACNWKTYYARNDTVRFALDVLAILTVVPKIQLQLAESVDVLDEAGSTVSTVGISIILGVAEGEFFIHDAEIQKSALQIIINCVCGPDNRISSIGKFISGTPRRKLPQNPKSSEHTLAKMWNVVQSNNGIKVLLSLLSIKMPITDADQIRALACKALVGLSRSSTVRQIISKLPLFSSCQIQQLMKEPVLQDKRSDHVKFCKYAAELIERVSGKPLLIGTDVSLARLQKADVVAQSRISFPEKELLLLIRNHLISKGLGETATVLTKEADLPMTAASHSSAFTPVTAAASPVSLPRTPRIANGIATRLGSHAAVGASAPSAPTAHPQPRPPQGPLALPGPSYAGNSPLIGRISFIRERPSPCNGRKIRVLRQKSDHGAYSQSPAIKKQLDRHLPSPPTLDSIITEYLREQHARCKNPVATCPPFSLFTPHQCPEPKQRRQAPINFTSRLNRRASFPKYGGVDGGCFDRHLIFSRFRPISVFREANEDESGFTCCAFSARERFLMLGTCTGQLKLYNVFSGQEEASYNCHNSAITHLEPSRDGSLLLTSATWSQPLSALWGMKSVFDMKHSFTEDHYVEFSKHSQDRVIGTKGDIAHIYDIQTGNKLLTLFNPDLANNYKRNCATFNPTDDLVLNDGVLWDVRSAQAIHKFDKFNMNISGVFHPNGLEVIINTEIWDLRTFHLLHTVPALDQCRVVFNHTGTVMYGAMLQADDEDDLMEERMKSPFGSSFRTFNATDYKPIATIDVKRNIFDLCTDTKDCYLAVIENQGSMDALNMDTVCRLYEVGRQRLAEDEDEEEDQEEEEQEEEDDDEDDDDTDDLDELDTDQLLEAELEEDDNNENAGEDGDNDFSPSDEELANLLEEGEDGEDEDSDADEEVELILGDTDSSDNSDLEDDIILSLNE
UniProt O94986: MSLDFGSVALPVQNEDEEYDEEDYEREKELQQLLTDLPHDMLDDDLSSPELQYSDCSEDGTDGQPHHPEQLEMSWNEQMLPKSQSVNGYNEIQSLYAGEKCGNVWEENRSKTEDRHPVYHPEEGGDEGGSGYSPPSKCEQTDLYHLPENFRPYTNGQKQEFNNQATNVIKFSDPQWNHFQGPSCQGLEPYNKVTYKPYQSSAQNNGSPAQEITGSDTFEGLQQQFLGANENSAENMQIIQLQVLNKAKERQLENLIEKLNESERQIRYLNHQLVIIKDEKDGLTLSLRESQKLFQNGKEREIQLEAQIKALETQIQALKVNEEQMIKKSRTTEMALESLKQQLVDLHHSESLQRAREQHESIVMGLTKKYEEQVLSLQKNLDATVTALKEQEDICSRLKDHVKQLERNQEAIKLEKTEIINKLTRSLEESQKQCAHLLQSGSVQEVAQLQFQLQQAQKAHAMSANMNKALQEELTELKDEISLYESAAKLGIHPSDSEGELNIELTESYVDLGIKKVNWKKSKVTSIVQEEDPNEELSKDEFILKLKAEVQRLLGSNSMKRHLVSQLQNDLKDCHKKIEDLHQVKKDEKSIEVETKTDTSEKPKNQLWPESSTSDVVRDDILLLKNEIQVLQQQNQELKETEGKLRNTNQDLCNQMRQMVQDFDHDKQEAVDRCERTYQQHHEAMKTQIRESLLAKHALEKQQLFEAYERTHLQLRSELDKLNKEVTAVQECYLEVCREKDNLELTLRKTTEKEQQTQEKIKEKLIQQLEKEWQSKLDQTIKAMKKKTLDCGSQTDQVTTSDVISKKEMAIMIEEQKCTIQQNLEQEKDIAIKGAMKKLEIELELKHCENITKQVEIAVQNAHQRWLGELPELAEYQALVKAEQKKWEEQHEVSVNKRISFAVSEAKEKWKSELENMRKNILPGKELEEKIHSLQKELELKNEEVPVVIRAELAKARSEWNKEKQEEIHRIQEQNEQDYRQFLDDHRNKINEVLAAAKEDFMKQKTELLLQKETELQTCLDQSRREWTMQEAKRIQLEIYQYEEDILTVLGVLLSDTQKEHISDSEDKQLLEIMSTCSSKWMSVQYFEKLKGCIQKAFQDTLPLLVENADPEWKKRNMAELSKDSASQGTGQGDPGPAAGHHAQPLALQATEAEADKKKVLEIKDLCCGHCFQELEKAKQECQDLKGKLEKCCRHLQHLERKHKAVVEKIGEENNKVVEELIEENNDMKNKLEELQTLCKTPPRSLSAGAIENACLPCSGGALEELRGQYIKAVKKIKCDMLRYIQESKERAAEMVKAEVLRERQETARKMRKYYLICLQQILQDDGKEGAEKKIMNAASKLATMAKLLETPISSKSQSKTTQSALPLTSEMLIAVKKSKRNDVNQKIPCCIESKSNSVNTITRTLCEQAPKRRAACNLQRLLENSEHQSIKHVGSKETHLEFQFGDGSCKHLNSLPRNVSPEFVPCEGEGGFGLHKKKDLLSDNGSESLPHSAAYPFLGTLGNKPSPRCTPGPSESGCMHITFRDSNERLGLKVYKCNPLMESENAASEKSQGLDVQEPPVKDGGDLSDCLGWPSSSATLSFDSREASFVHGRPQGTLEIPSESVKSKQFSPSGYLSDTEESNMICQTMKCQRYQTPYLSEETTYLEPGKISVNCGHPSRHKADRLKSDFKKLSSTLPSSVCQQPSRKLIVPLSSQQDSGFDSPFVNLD

| binding | Substance |
| --- | --- |
| binds | DCAF5, endogenous (from UniProt Q96JK2 1-942) |
| binds | DDB1 (DNA damage-binding protein 1), endogenous (from UniProt Q16531 1-1140) |
| binds | DCAF1 (VprBP), endogenous (from UniProt Q9Y4B6 1-1507) |
| binds | CEP152, endogenous (from UniProt O94986 1-1710) |
| binds | β-TrCP, endogenous (human (endogenous in HEK293T)) |

Source: paper PMC10942865
